Test results taken from paper PMC7893936.
No constants are given. Whether binding was seen depends on the method and setting. For some assays here: In cells and extracts the contact can be indirect. Some binding calls cover weakened binding; strength is not graded here.

Sequences of proteins named here, by UniProt entry; tags and fusion partners are left off.
UniProt P78362: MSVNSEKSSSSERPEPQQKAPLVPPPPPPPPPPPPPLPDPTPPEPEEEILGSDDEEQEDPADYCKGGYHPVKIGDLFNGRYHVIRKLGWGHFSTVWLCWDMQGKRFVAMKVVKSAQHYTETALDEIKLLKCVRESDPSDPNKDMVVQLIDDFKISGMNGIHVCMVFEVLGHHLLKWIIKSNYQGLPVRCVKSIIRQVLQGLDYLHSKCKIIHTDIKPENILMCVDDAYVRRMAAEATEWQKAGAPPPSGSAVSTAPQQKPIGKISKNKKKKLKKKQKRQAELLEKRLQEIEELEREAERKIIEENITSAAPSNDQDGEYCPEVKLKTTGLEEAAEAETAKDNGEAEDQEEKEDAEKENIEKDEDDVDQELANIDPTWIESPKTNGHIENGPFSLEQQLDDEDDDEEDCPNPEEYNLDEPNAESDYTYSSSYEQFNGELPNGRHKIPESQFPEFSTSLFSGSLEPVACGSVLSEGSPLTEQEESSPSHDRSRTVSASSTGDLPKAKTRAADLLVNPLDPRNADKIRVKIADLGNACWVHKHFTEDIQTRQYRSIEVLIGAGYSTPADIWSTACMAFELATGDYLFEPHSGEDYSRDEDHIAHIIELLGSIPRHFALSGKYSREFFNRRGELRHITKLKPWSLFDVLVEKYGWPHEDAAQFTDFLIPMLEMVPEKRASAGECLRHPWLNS
UniProt Q07955: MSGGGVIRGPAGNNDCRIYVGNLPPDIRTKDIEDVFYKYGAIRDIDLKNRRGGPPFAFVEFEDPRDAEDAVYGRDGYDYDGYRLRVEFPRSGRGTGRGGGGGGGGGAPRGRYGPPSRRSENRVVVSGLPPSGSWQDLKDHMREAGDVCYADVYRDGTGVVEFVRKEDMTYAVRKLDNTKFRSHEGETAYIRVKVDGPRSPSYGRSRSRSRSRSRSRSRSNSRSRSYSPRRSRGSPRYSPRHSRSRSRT

What was measured:
GST-tagged SRPK2 = GST-tagged SRPK2 (UniProt P78362); assay: pull-down; purified GST-SRPK1 or GST-SRPK2 incubated with purified SRSF1 in vitro, GST agarose beads; GST protein as negative control; both purified
[1] = target: HA-tagged SRPK2 (pcDNA-SRPK2) (UniProt P78362); assay: co-IP; lysates (RIPA buffer) of transfected SW480 cells incubated with HA agarose beads overnight at 4 °C, washed with RIPA buffer, western blotting

| binding (GST-tagged SRPK2) | binding [1] | Substance |
| --- | --- | --- |
| binds |  | His-SRSF1 (from UniProt Q07955 1-248) |
|  | binds | SRSF1 (serine/arginine-rich splicing factor 1) in SW480 cells (from UniProt Q07955 1-248) |
